# Test results reported in the supplement of paper PMC3334620.
# In all, about 33,000 sequences were measured (“E-score (-0.5 to 0.5)”: median about -0.0014, highest 2% from about 0.25 on). Some of the results follow.
# Target: T1, Cad1 (UniProt P24813)
# T1 sequence: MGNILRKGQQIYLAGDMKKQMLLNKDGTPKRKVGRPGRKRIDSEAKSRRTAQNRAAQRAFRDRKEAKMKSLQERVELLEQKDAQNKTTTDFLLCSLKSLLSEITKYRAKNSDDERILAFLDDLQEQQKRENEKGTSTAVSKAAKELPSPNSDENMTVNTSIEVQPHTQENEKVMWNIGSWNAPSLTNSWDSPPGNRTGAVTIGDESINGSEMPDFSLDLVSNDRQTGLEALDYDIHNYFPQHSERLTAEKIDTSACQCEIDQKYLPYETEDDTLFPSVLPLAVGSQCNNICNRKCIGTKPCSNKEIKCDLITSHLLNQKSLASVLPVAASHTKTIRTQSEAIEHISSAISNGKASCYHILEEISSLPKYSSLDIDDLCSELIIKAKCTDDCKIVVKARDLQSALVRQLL
# Assay: PBM E-score (8-mer binding enrichment) (E-score (-0.5 to 0.5)); higher = stronger / more preferred TF binding
# Details: protein concentration: 100 nM; construct: GST-full length
# Description: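 Universal 'all 10-mer' protein binding microarrays (Agilent AMADID 015681) probed with GST-tagged S. cerevisiae TFs (full-length or DBD) made by in vitro transcription/translation (PURExpress), about 100-200 nM. Bound TF was detected with fluorescent anti-GST. Each ungapped 8-mer (which stands for itself and its reverse complement) is scored by the PBM enrichment score (E-score), a modified Wilcoxon-Mann-Whitney statistic from -0.5 to +0.5, computed with the Universal PBM Analysis Suite. Scale: above 0.35 generally sequence-specific binding.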
row,Sequence,PBM E-score
1,CCTATTGC,0.0226
2,CGACCTGA,0.0131
3,GATCCCAA,-0.137
4,AAATTCTC,-0.0714
5,GCATGGGA,-0.212
6,ACACTGGA,0.182
7,GCTGTATA,0.0801
8,AATCAGCG,0.211
9,AACGCCGT,0.0733
10,CGCTAGAA,-0.0833
11,ATGGCGGG,0.143
12,GCGTCTAA,-0.0676
13,AAATACTC,0.0948
14,CGAGAGGC,-0.243
15,ACCTACCA,-0.17
16,AGGTCGCG,0.117
17,TCGTGGCA,0.102
18,CGACTTCC,-0.0468
19,GCGCTTAA,0.106
20,CGGCAGCA,-0.0735
21,AGACAAGG,-0.0828
22,GTCCGCAA,0.141
23,ATGGCAGG,0.0752
24,GCCTTTCA,-0.131
25,GGAGTCAC,-0.265

# Single entries from the entries so far.
# For PBM E-score, CGACTTCC shows -0.0468
# For PBM E-score, CGACCTGA shows 0.0131
# For PBM E-score, ATGGCAGG shows 0.0752
# For PBM E-score, AACGCCGT shows 0.0733
# For PBM E-score, ATGGCGGG shows 0.143

# (continued)

row,Sequence,PBM E-score
1,CGCAGCTC,-0.0491
2,ATGGGCGA,-0.274
3,ACTATGAA,0.0148
4,ATTTCACG,0.189
5,AGACTAAG,-0.13
6,ATTGAATC,-0.0423
7,AGAGAAGG,-0.176
8,CGGAACCC,0.0865
9,GAGCTTGA,0.0153
10,ACCTGCTA,0.027
11,GCCTGGAC,-0.0433
12,AAGGTTTC,0.0554
13,ACTTATCC,0.0942
14,AGTTGAGG,-0.125
15,GTGGCACA,-0.208
16,AGGTTGGC,-0.143
17,CAGGAGCC,-0.21
18,AGTGCGCA,0.17
19,ACTACGAT,0.0898
20,ATGCGCCG,0.0273
21,CCGATGAA,0.137
22,TAGCCCGA,-0.0105
23,CTGGTTCC,-0.00859
24,GCCGGCGC,0.212
25,CTTTTTTC,-0.13

row,Sequence,PBM E-score
1,AGTGTACC,-0.115
2,CCCGAAGC,-0.0644
3,TACTGCCA,-0.103
4,CACTTATG,0.175
5,GACCCAGA,-0.0356
6,AGAGTCCT,-0.251
7,GATCCTGC,0.0302
8,ACCAGAGT,-0.182
9,ATTAAAAC,0.108
10,GCGCCAAC,0.145
11,CGCGGGAG,-0.0438
12,TCTTCTCA,-0.0244
13,AACAGACA,0.187
14,AGATGCAA,-0.0727
15,AACAGCAG,0.0283
16,GACAGACC,-0.0425
17,CAATTCCG,0.192
18,ATCACGAC,0.132
19,CGTATCAA,0.0137
20,GCACTTGA,0.0277
21,AACAATAG,-0.183
22,CTGATCAG,0.153
23,AGATTCTC,-0.145
24,ACATAAGA,0.165
25,ATTGTCGA,-0.00986

row,Sequence,PBM E-score
1,AATGCAGG,-0.0263
2,CACATGTC,0.0392
3,ACACCTTA,0.112
4,ATGCGCTC,-0.0149
5,TGATTCCA,-0.114
6,AAGTTTAG,-0.00022
7,CACCGCGC,0.0105
8,AGGGTTTG,-0.123
9,CGGTTTGA,0.0875
10,ATTCTGAA,0.152
11,ATCACACG,0.0774
12,CATCGTCC,0.0486
13,GCGGCCGA,0.0504
14,CAGGAGCA,-0.0281
15,TAAATAGA,-0.152
16,AGCGACTG,-0.0466
17,ACACAGCA,0.076
18,AAGACTGC,-0.182
19,AGGCGATC,-0.198
20,AAGATCCC,-0.00524
21,ACCGCGAT,0.174
22,GAGTTCAA,-0.0322
23,CCACATGC,0.111
24,ATTACACA,0.284
25,CGTGGTGC,-0.202

row,Sequence,PBM E-score
1,ATTGGTGA,-0.125
2,GGATGAGA,0.188
3,CTGAATCC,-0.023
4,GGGCGGCA,-0.224
5,ACTTAGGG,-0.0989
6,AAAGATTG,-0.04
7,CGGTTTGC,-0.021
8,GTCATTTA,0.00473
9,CATGGTGC,-0.0572
10,AGGAATCG,0.162
11,CCGAGCGG,-0.139
12,AGCCTCAG,-0.0332
13,GCACTAAA,0.191
14,GGCGAATA,0.0973
15,GTTAACGA,0.00451
16,ACTGGACG,-0.0529
17,CAGCTGGA,0.171
18,ACCAGAGA,0.0407
19,AGATTGTC,-0.0366
20,GGAGTCAA,-0.136
21,AAGGCTCC,-0.36
22,CCGACCCC,-0.372
23,AACGAACG,0.0769
24,CTTGTCTA,0.00616
25,CTCTGCGA,0.0717

row,Sequence,PBM E-score
1,AAATACGT,0.135
2,CTCGTTAC,-0.044
3,TATGTCGA,0.127
4,CTTCTTGA,-0.0249
5,CTTTACAA,-0.0302
6,CTATCACC,-0.148
7,AGATCCCA,-0.098
8,AGACGCTC,-0.23
9,CCTGACGC,-0.122
10,AAAGGTTG,-0.158
11,CAAAAATG,-0.0404
12,AGGACAGG,-0.16
13,TAATGTCA,0.105
14,GAAGATAC,0.11
15,CCCACCCA,-0.0824
16,AACTAGGA,0.0724
17,CTATTTGA,0.0972
18,AGAACTTC,-0.11
19,AACTATGG,-0.177
20,GCTAGGCC,-0.138
21,AGTATTAT,0.0398
22,GACAGGTC,-0.186
23,GCAGGCGA,-0.051
24,CGGACTTA,-0.0525
25,CAGCGTTA,0.0612

row,Sequence,PBM E-score
1,TAAATAAA,0.125
2,AAGGGCGC,-0.144
3,CCGGCCAC,-0.172
4,AGGTATGC,0.0201
5,ACTAAGTA,0.0166
6,ATAGTGCG,0.14
7,AACACGGA,0.147
8,CATCTACC,0.054
9,ACGCGGGG,0.0463
10,CACTGCTA,-0.0446
11,GGCACGCA,-0.0233
12,CCCCTAGC,-0.241
13,ACAGTAAC,0.0984
14,CAATCCTA,-0.015
15,AGTCGGGG,-0.177
16,AGACCTAG,-0.141
17,AACTAGTG,-0.0571
18,CGTCCGAG,0.0847
19,GATAACCA,0.0873
20,AACAATCG,0.0166
21,CGGTCTAC,-0.157
22,CGTTAGTA,0.289
